PubChem BioAssay AID720504 (National Center for Advancing Translational Sciences (NCATS), 2013)
In all, about 360,000 compounds went through this assay and about 10,000 (2.8%) were called active. Inconclusive means that the source gave no clear call. Such entries were picked first, then a sample of the others. Calls follow the shape of the dose curve; as a rule, active = well fitted inhibition curve with a large enough effect; inconclusive = small, poorly fitted or top-dose-only effect; inactive = flat fitted curve, though single readings scatter. Potencies of inconclusive entries are doubtful fits and often do not repeat.

Sequences of proteins named here, by UniProt entry; tags and fusion partners are left off.
UniProt P53350, whole entry, looked up: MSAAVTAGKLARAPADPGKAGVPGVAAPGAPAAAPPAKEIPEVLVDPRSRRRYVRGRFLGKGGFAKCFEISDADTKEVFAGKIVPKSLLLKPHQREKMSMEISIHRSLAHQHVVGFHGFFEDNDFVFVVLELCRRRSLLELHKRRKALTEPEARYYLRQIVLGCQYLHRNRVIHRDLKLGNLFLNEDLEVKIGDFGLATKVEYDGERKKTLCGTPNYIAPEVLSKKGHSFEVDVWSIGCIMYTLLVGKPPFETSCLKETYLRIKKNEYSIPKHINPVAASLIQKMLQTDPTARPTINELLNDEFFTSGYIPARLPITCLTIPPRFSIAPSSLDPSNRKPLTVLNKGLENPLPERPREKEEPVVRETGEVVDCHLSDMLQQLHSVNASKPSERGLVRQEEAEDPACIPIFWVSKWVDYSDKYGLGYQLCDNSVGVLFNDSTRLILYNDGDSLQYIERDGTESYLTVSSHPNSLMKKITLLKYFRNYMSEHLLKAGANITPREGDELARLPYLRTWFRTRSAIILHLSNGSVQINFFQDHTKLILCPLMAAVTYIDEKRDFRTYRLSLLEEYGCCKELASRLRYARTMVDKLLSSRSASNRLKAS

Target: Serine/threonine-protein kinase PLK1 (Homo sapiens) (UniProt P53350)
Assay: qHTS for Inhibitors of PLK1-PDB (polo-like kinase 1 - polo-box domain): Primary Screen; also: nearly all actives have a fitted effect of over 65% in size; as to max response, negative = inhibition: series mostly up to about 57 µM
Conditions: Plk1 PBD binding of FITC phosphopeptide, fluorescence polarization
% is scaled to controls: 0 for no effect and ±100 for the full control effect; potency is read from the fitted curve at half-maximal effect.

Which max response, negative = inhibition does the source give for `CCn1c(CC(=O)Nc2ccccc2F)nnc1SCC(=O)NC1CCCCC1` here?
The max response, negative = inhibition was inactive: -14%.

`COC(=O)CSc1nc(N2CCCCC2)c2c(c1C#N)CCCC2` was tested. Which Potency did it give?
Its Potency is active: 23.8 µM.

With `COc1ccc(N2C(=O)c3ccccc3C2=O)cc1` as the molecule, how does the max response, negative = inhibition read?
Its max response, negative = inhibition is inactive: -20.8%.

`COc1ccc(NC(=O)Nc2sc(=S)n(C)c2C)cc1` was tested. Which Potency did it give?
Its Potency is inconclusive: 33.6 µM [inhibitor, single point].

Which max response, negative = inhibition does the source give for `Cc1ccc(Cn2c(C3CCCN3c3nc(C)cs3)nc3cc(C(F)(F)F)ccc32)cc1` (centres undefined) here?
The max response, negative = inhibition was inactive: -10.9%.

`COc1ccc(Cn2c(-c3ccco3)nc3oc4cc(OC)ccc4c(=O)c3c2=O)cc1` was tested. Which max response, negative = inhibition did it give?
The max response, negative = inhibition was inactive: -12.3%.

For `O=C(NCCCN1CCCC1=O)c1ccc2c(c1)ncn2C1CCCCC1`, which max response, negative = inhibition is on record?
The max response, negative = inhibition was inactive: -2.02%.

`Cc1csc2ncc(C(=O)NCc3ccco3)c(=O)n12` was tested. Which max response, negative = inhibition did it give?
The max response, negative = inhibition was inactive: -3.74%.

For `Cc1[nH][nH]c(=O)c1C(c1ccc(-c2ccccc2C(=O)O)o1)c1c(C)[nH][nH]c1=O`, which Potency is on record?
The Potency was inconclusive: 26.7 µM [inhibitor, single point].

How did the Potency turn out when `O=c1oc2ccccc2n1CSc1nc2ccccc2s1` was run?
The Potency was inconclusive: 33.6 µM [inhibitor, single point].

How did the max response, negative = inhibition turn out when `CCCCOc1c(Br)cc(CNCCCN2CCOCC2)cc1OC` was run?
Its max response, negative = inhibition is inactive: 5.28%.

For `O=C(O)c1ccccc1NC(=O)c1cc(-c2ccccc2)nc2ccccc12`, which Potency is on record?
The Potency was inconclusive: 37.7 µM [inhibitor, single point].

`CSc1sc2ccccc2[n+]1CCCS(=O)(=O)[O-]` was tested. Which Potency did it give?
The Potency was inconclusive: 26.7 µM [inhibitor, partial curve].

With `CCCn1ncc(CN2CCC(n3nccc3NC(=O)c3ccccc3OC)CC2)c1C` as the molecule, how does the max response, negative = inhibition read?
The max response, negative = inhibition was inactive: 2.71%.

With `O=C(CSc1ccc2nnc(-c3cccnc3)n2n1)NCc1ccc2c(c1)OCO2` as the molecule, how does the max response, negative = inhibition read?
Its max response, negative = inhibition is inactive: -22.6%.

`CCN([C@H](CO)C(C)C)S(=O)(=O)c1ccccc1Br` was tested. Which Potency did it give?
Its Potency is inconclusive: 21.2 µM [inhibitor, single point].

For `CC(=O)c1cnc(Nc2cccc(Cl)c2Cl)s1`, which Potency is on record?
The Potency was inconclusive: 37.7 µM [inhibitor, single point].

For `COc1ccc(N2CC(O)=C(c3n(C)c4ccccc4[n+]3C)C2=N)cc1`, which Potency is on record?
Its Potency is active: 26.7 µM.

`COc1ccc(S(=O)(=O)/N=C2/NC(=O)/C(=C/c3ccco3)S2)cc1` was tested. Which max response, negative = inhibition did it give?
The max response, negative = inhibition was inactive: -27.2%.

How did the Potency turn out when `CSc1nnc(-c2cccn(Cc3ccccc3)c2=O)o1` was run?
Its Potency is inconclusive: 37.7 µM [inhibitor, single point].

For `COC(=O)C(C)Sc1nc2c(c(=O)n(C)c(=O)n2C)n1Cc1cccc(C)c1` (centres undefined), which Potency is on record?
Its Potency is inconclusive: 21.2 µM [inhibitor, partial curve].

For `Cc1ccc(Nc2nc(N)nc(CN3CCCCCC3)n2)cc1`, which Potency is on record?
Its Potency is inconclusive: 26.7 µM [inhibitor, partial curve].

How did the max response, negative = inhibition turn out when `COc1cc(C(=S)N2CCOCC2)ccc1OC(=O)c1ccc(Br)cc1` was run?
The max response, negative = inhibition was inactive: -9.69%.

For `O=C1NC(=S)S/C1=C\C=C\c1ccc([N+](=O)[O-])o1`, which Potency is on record?
Its Potency is active: 21.2 µM.

`COc1ccc(NC(=S)Nc2ccc(S(=O)(=O)N3CCOCC3)cc2)c(OC)c1` was tested. Which max response, negative = inhibition did it give?
The max response, negative = inhibition was inactive: -20.9%.

Which max response, negative = inhibition does the source give for `O=C(CS(=O)(=O)c1ccccc1)NCc1ccco1` here?
The max response, negative = inhibition was inactive: -22.2%.

How did the Potency turn out when `CN(N)c1ccc2c(C(F)(F)F)cc(C(F)(F)F)nc2n1` was run?
Its Potency is active: 23.8 µM.

For `CC/C(=N\NC(=S)NC(C)C)c1ccc(OC(F)F)cc1`, which Potency is on record?
Its Potency is inconclusive: 29.9 µM [inhibitor, partial curve].

With `C=CCNC(=S)/C(=C(\[O-])c1ccc(Cl)cc1)[n+]1ccccc1` as the molecule, how does the max response, negative = inhibition read?
Its max response, negative = inhibition is inactive: -21.6%.

Which Potency does the source give for `O=C1/C(=C\c2cccc([N+](=O)[O-])c2O)SC(=S)N1Cc1ccccc1` here?
Its Potency is active: 16.8 µM.

`CC(C)NC(=O)N(C)C[C@H]1Oc2c(NC(=O)Cc3ccccc3)cccc2C(=O)N([C@H](C)CO)C[C@@H]1C` was tested. Which Potency did it give?
Its Potency is active: 26.7 µM.

With `Cc1ccc(SCC(=O)NNC(=O)c2ccccc2)cc1C` as the molecule, how does the max response, negative = inhibition read?
Its max response, negative = inhibition is inactive: -9.1%.

Which Potency does the source give for `Cc1[nH][nH]c(=O)c1C(c1c(C)[nH][nH]c1=O)c1cn(Cc2ccc(Cl)c(Cl)c2)c2ccccc12` here?
Its Potency is inconclusive: 10.6 µM [inhibitor, partial curve].

For `CCN(CC)C(=O)Cn1c(=O)n(CCCC(=O)NCc2ccccc2)c(=O)c2sccc21`, which max response, negative = inhibition is on record?
The max response, negative = inhibition was inactive: 3.3%.

Which max response, negative = inhibition does the source give for `CSCCC(NS(=O)(=O)c1ccccc1)C(=O)OC(C)C(=O)Nc1ccc(Cl)cn1` (centres undefined) here?
Its max response, negative = inhibition is inactive: -2.15%.

For `COc1cc(/C=C/C(=O)NC2CCCCC2)cc(OC)c1OC`, which Potency is on record?
Its Potency is active: 26.7 µM.

How did the max response, negative = inhibition turn out when `CC(C)C1=NN2C(=N)CC(=O)N=C2S1` was run?
Its max response, negative = inhibition is inactive: -1.76%.

How did the max response, negative = inhibition turn out when `O=C1CCCc2c1cc(C(=O)Nc1ccc(Br)cn1)c(=O)n2-c1ccccc1` was run?
The max response, negative = inhibition was inactive: -16.2%.

With `CCCC(=O)Nc1ccccc1NC(=O)c1ccc(OC)cc1` as the molecule, how does the max response, negative = inhibition read?
The max response, negative = inhibition was inactive: -19.8%.

For `CC(C)[C@H](NC(=O)c1ccccc1)C(=O)OCc1nnc(-c2ccccc2)o1`, which Potency is on record?
Its Potency is active: 26.7 µM.

`COC(=O)c1ccc2c(=O)n(C3CCCCC3)c(SCC#N)nc2c1` was tested. Which max response, negative = inhibition did it give?
The max response, negative = inhibition was inactive: -2.3%.

`CNC(CC(C)C)C(=O)NC1C(=O)NC(CC(N)=O)C(=O)NC2C(=O)NC3C(=O)NC(C(=O)NC(C(=O)O)c4cc(O)cc(O)c4-c4cc3ccc4O)C(O)c3ccc(c(Cl)c3)Oc3cc2cc(c3OC2OC(CO)C(O)C(O)C2OC2C[C@](C)(N)C(O)C(C)O2)Oc2ccc(cc2Cl)C1O` (some centres undefined) was tested. Which max response, negative = inhibition did it give?
The max response, negative = inhibition was inactive: 2.34%.

`COc1ccc2c(c1)c1ccc3c(c1n2C)C(=O)C=CC3=O` was tested. Which Potency did it give?
The Potency was inconclusive: 21.2 µM [inhibitor, partial curve].

For `CCOC(=O)C1=C(CSc2nc(C)cc(C)c2C#N)OC(N)=C(C#N)C1c1ccccc1` (centres undefined), which Potency is on record?
Its Potency is inconclusive: 16.8 µM [inhibitor, partial curve].

`Cc1ccc(C(=O)CCC(=O)Nc2cccc(C)c2)cc1` was tested. Which max response, negative = inhibition did it give?
Its max response, negative = inhibition is inactive: 1.21%.

How did the max response, negative = inhibition turn out when `COC(=O)[C@@]1(C(C)C)N=C(c2cc(OC)c(OC)c(OC)c2)[C@]2(O1)C(=O)N(C)c1ccccc12` was run?
Its max response, negative = inhibition is inactive: -11.7%.

Which max response, negative = inhibition does the source give for `Cc1cc(/C=C2/C(=N)N3C(c4ccccc4)=CSC3=NC2=O)c(C)n1-c1ccccc1` here?
The max response, negative = inhibition was inactive: 7%.

`Cc1ccccc1NC(=O)C(=O)NCCc1ccccc1` was tested. Which max response, negative = inhibition did it give?
Its max response, negative = inhibition is inactive: -8.16%.

For `Nc1cc2c(cc1C(=O)c1ccccc1F)OCCO2`, which max response, negative = inhibition is on record?
Its max response, negative = inhibition is inactive: -8%.

With `O=c1[nH]n2c(=O)c3c([nH]c2c1N=Nc1cccc(Cl)c1)CCC3` as the molecule, how does the Potency read?
The Potency was inconclusive: 37.7 µM [inhibitor, partial curve].

Which Potency does the source give for `CCOC(=O)/C(=C\c1cn(C)c2ccccc12)[N+](=O)[O-]` here?
The Potency was active: 1.68 µM.

`COc1ccc(NC(=S)NNc2ccc(C(=O)O)cc2)cc1` was tested. Which max response, negative = inhibition did it give?
The max response, negative = inhibition was inconclusive: -33.2% [inhibitor].

For `COC(=O)C1=C(C(=O)OC)C(c2cc([N+](=O)[O-])ccc2O)c2sc(=O)[nH]c2S1` (centres undefined), which Potency is on record?
The Potency was inconclusive: 21.2 µM [inhibitor, partial curve].

Which max response, negative = inhibition does the source give for `CC1(C)Cc2c(ccc3ccccc23)/C(=C/C(=O)N2CCCCC2)N1` here?
The max response, negative = inhibition was inactive: -12.2%.

Which max response, negative = inhibition does the source give for `COc1ccc(OC)c(S(=O)(=O)N2CCCC(C(=O)N3CCCCCC3)C2)c1` (centres undefined) here?
Its max response, negative = inhibition is inactive: -2.87%.

Which Potency does the source give for `CCOc1ccc(NC(=NCc2ccc3c(c2)OCO3)SC2CC(=O)N(c3ccc(C(=O)O)cc3)C2=O)cc1` (centres undefined) here?
Its Potency is inconclusive: 26.7 µM [inhibitor, single point].

How did the max response, negative = inhibition turn out when `COCc1c(C(=O)Nc2ccc(Cl)cc2F)oc2ccccc12` was run?
The max response, negative = inhibition was inactive: -7.93%.

Which Potency does the source give for `O=C(NC(=S)Nc1ccc2oc(=O)ccc2c1)c1cccc(Cl)c1` here?
Its Potency is inconclusive: 26.7 µM [inhibitor, single point].

For `O=[N+]([O-])c1cc(S(=O)(=O)N2CCOCC2)ccc1N1CCCC1`, which max response, negative = inhibition is on record?
The max response, negative = inhibition was inactive: -6.45%.

How did the Potency turn out when `CC(C)Oc1ccc(CCc2nnc(SC(C)C(=O)O)n2-c2ccccc2)cc1` (centres undefined) was run?
Its Potency is inconclusive: 26.7 µM [inhibitor, single point].

With `COc1ccccc1CNC(=O)CSc1nc(-c2ccccc2)cn1N` as the molecule, how does the max response, negative = inhibition read?
Its max response, negative = inhibition is inactive: -5.02%.

With `Cc1cc(C)c(S(=O)(=O)Nc2ccc(OCC(=O)O)cc2)c(C)c1` as the molecule, how does the Potency read?
Its Potency is inconclusive: 29.9 µM [inhibitor, single point].

How did the Potency turn out when `N#Cc1c(NC(=S)NC(=O)c2ccccc2)sc2c1CCC2` was run?
The Potency was inconclusive: 10.6 µM [inhibitor, partial curve].

How did the Potency turn out when `Cc1nnc(N2C(=O)C(O)=C(C(=O)c3ccco3)C2c2ccc(C(C)(C)C)cc2)s1` (centres undefined) was run?
Its Potency is inconclusive: 29.9 µM [inhibitor, partial curve].

`CCOC(=O)Cc1csc(NC(=O)CCC(=O)O)n1` was tested. Which max response, negative = inhibition did it give?
The max response, negative = inhibition was inactive: -5.66%.

`CCSc1ncc(/C=N/Nc2ccccc2)n1C` was tested. Which Potency did it give?
Its Potency is active: 7.52 µM.

`O=C(O)c1[nH]c2ccccc2c1C(c1c(F)cccc1Cl)c1c(C(=O)O)[nH]c2ccccc12` was tested. Which Potency did it give?
The Potency was inconclusive: 26.7 µM [inhibitor, partial curve].

For `Cc1ccc(N2C(=O)CC(N3CCN/C3=C3\CC/C(=C\c4ccccc4)C3=O)C2=O)cc1` (centres undefined), which max response, negative = inhibition is on record?
Its max response, negative = inhibition is inactive: -9.49%.

Which Potency does the source give for `COc1ccc(/C=C2/C(=O)ON=C2C)cc1Cl` here?
The Potency was active: 2.12 µM.

With `COc1ccc(C=O)cc1Cn1cnc2c(cnn2C)c1=O` as the molecule, how does the Potency read?
Its Potency is inconclusive: 21.2 µM [inhibitor, partial curve].

How did the max response, negative = inhibition turn out when `Cc1cc(C(=O)CSc2n[nH]c(N)n2)c(C)n1C1CC1` was run?
Its max response, negative = inhibition is inactive: -8.29%.

How did the Potency turn out when `O=c1oc2ccccc2c(O)c1C=Nc1cccnc1` was run?
Its Potency is inconclusive: 23.8 µM [inhibitor, partial curve].

With `COc1ccc(CCNC(=O)CCCCCN2C(=O)[C@@H]3Cc4ccccc4CN3C2=O)cc1OC` as the molecule, how does the Potency read?
Its Potency is inconclusive: 33.6 µM [inhibitor, single point].

How did the Potency turn out when `CCc1ccc([C@@H]2CC=C(C(=O)O)[C@H](c3ccc(Cl)cc3)N2S(=O)(=O)c2ccc(C)cc2)cc1` was run?
The Potency was inconclusive: 21.2 µM [inhibitor, single point].
